Data as given in PubChem BioAssay AID1259264 (Sanger Institute, 2017)
Screen: 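Kinases whose loss cuts CL40 colorectal cancer cell survival, alone or with drugs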 (primary screen). System: CL40 human colorectal cancer cells. Knock-down reagent: siRNA pool against human genes. Conditions: DMSO, or an anchor drug: BYL719 at 1 µM, cetuximab at 5 µg/ml, or trametinib at 10 nM. Read-out: 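Viability as a fraction of non-targeting pool control (replicates averaged), control-based robust z-score, plus averaged synergy for each drug: BYL719 1 µM, cetuximab 5 µg/ml, trametinib 10 nM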. Direction: robust z-score, siRNA alone and viability, siRNA alone: higher = more viable cells; synergy score with BYL719: higher = stronger combined killing with BYL719; synergy score with cetuximab: higher = stronger combined killing with cetuximab; synergy score with trametinib: higher = stronger combined killing with trametinib. Active means: 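Essential call: siRNA with no drug reaches a robust z under -3 (low cell count); drug synergy scores do not affect it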. Meaning of the calls: active = essential (lowers viability alone); inactive = not essential.
Shown is an unselected part of 794 deposited reagents. 15 of them (1.9%) count as active. 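Calls rest on knock-down alone at z-score below -3; synergy scores with the three drugs do not decide them.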 No viability above 1 is reported: the scale is capped. Not stated in the record: the amount of reagent, the time to read-out.

The opening 2 entries as a preview:
gene knocked down	robust z-score, siRNA alone	viability, siRNA alone (fraction of control)	synergy score with BYL719	synergy score with cetuximab	synergy score with trametinib	Outcome
PTPN11 (protein tyrosine phosphatase non-receptor type 11)	0.539	1	-0.0464	-0.0174	-0.0339	inactive
MTOR (mechanistic target of rapamycin kinase)	-1.41	0.861	-0.0722	0.0113	0.101	inactive

The list itself, repeating the preview:
gene knocked down	robust z-score, siRNA alone	viability, siRNA alone (fraction of control)	synergy score with BYL719	synergy score with cetuximab	synergy score with trametinib	Outcome
PTPN11 (protein tyrosine phosphatase non-receptor type 11)	0.539	1	-0.0464	-0.0174	-0.0339	inactive
MTOR (mechanistic target of rapamycin kinase)	-1.41	0.861	-0.0722	0.0113	0.101	inactive
PRKACG (protein kinase cAMP-activated catalytic subunit gamma)	0.539	1	-0.156	-0.0174	0.118	inactive
EXOSC10 (exosome component 10)	-0.583	0.92	-0.0468	0.00796	0.0275	inactive
MARK3 (microtubule affinity regulating kinase 3)	0.539	1	-0.0663	-0.0174	0.149	inactive
CKS2 (CDC28 protein kinase regulatory subunit 2)	0.539	1	-0.0122	-0.0174	0.0483	inactive
PRKCZ (protein kinase C zeta)	0.0332	0.964	-0.125	-0.0531	0.127	inactive
HCK (HCK proto-oncogene, Src family tyrosine kinase)	0.539	1	-0.133	-0.0174	0.0648	inactive
TGFBR1 (transforming growth factor beta receptor 1)	0.539	1	-0.0626	0.0279	0.0706	inactive
STK32B (serine/threonine kinase 32B)	-3.69	0.697	-0.208	-0.083	0.0178	active
DTYMK (deoxythymidylate kinase)	0.539	1	-0.106	-0.000723	0.119	inactive
CDADC1 (cytidine and dCMP deaminase domain containing 1)	-1.34	0.865	-0.131	-0.0837	0.0599	inactive
MAP3K5 (mitogen-activated protein kinase kinase kinase 5)	0.539	1	-0.0215	-0.0174	0.123	inactive
TESK2 (testis associated actin remodelling kinase 2)	-0.733	0.909	-0.203	-0.0564	-0.0356	inactive
DCLK2 (doublecortin like kinase 2)	-0.0916	0.955	-0.151	-0.00929	0.0613	inactive
RPS6KL1 (ribosomal protein S6 kinase like 1)	0.539	1	-0.0518	-0.0174	0.12	inactive
MAGI1	-0.222	0.945	-0.101	-0.071	0.0569	inactive
NTRK2 (neurotrophic receptor tyrosine kinase 2)	0.539	1	0.0028	-0.0174	0.0822	inactive
BMX (BMX non-receptor tyrosine kinase)	0.0659	0.966	-0.112	-0.0508	0.0627	inactive
PHKB (phosphorylase kinase regulatory subunit beta)	0.539	1	-0.0838	-0.00175	-0.0557	inactive
MAP3K14 (mitogen-activated protein kinase kinase kinase 14)	-0.452	0.929	-0.0294	-0.0831	-0.0936	inactive
PCBP1 (poly(rC) binding protein 1)	0.539	1	-0.0821	-0.0174	0.00536	inactive
ROS1 (ROS proto-oncogene 1, receptor tyrosine kinase)	-0.442	0.93	-0.0738	-0.00494	0.0819	inactive
CSNK2B (casein kinase 2 beta)	0.322	0.984	-0.111	-0.0327	0.0759	inactive
AK5 (adenylate kinase 5)	-0.594	0.919	-0.048	-0.00236	0.0377	inactive
DUSP21 (dual specificity phosphatase 21)	0.539	1	-0.09	0.0655	0.0384	inactive
CDK3 (cyclin dependent kinase 3)	0.193	0.975	-0.0933	-0.0418	0.155	inactive
PRKD2 (protein kinase D2)	0.539	1	-0.0363	0.0693	0.0213	inactive
PGK2 (phosphoglycerate kinase 2)	0.539	1	-0.156	-0.0174	0.0511	inactive
TLK2 (tousled like kinase 2)	0.536	1	-0.0688	-0.0177	-0.0303	inactive
DIS3 (DIS3 exosome endoribonuclease and 3'-5' exoribonuclease)	-0.615	0.917	-0.07	-0.0302	-0.0573	inactive
PIP4K2A (phosphatidylinositol-5-phosphate 4-kinase type 2 alpha)	0.539	1	-0.0681	-0.0174	-0.0245	inactive
PRKCG (protein kinase C gamma)	0.539	1	-0.0476	0.0409	0.103	inactive
FBXW7 (F-box and WD repeat domain containing 7)	0.539	1	-0.153	-0.0174	0.0943	inactive
CHEK2 (checkpoint kinase 2)	-0.191	0.948	-0.0603	-0.0632	0.105	inactive
FN3K (fructosamine 3 kinase)	-0.089	0.955	-0.0204	-0.0617	0.101	inactive
AKT1 (AKT serine/threonine kinase 1)	0.0177	0.963	-0.0781	-0.0542	0.0687	inactive
CDKL4 (cyclin dependent kinase like 4)	0.539	1	-0.00955	0.00114	0.133	inactive
MAP4K5 (mitogen-activated protein kinase kinase kinase kinase 5)	0.305	0.983	-0.105	0.0645	0.142	inactive
TBX3 (T-box transcription factor 3)	0.539	1	-0.156	-0.0174	0.0327	inactive
RBM10 (RNA binding motif protein 10)	-0.444	0.929	-0.0907	-0.0528	0.142	inactive
GUCY2D (guanylate cyclase 2D, retinal)	-6.32	0.508	-0.0947	-0.0628	0.0531	active
TRIB1 (tribbles pseudokinase 1)	0.539	1	-0.145	-0.0174	0.123	inactive
CLK1 (CDC like kinase 1)	-0.305	0.939	-0.207	-0.0769	-0.12	inactive
PKN1 (protein kinase N1)	0.539	1	-0.0899	-0.0174	0.0591	inactive
STK17B (serine/threonine kinase 17b)	-0.833	0.902	-0.132	-0.11	0.0792	inactive
DYRK1A	0.539	1	0.0108	-0.0174	0.122	inactive
STK40 (serine/threonine kinase 40)	0.539	1	-0.0815	-0.0174	-0.0395	inactive
DGKK (diacylglycerol kinase kappa)	0.539	1	-0.0798	0.0356	0.0782	inactive
CDKN1B (cyclin dependent kinase inhibitor 1B)	0.539	1	-0.129	-0.00737	-0.000836	inactive
